Experimental data: PubChem BioAssay AID504774 (Drosophila RNAi Screening Center, 2011)
The deposit covers about 23,000 reagents; this is an unselected part of those that have a named target and a result. 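Values are quantile-normalised luminescence on an arbitrary scale; higher means more cells surviving MMS.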

Test: 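Genes required for cells to withstand methyl methanesulphonate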 (primary screen)
Cells: Drosophila Kc167 cells
Reagents: long dsRNA against Drosophila genes, about 0.25 µg dsRNA per well
Duration: about 6 days: 3 days knock-down, then 3 days with or without MMS
Conditions: methyl methanesulphonate 0.004% (w/v) for 3 days after knock-down
Detection: 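ATP-dependent luminescence as a measure of live cells in MMS-exposed wells, quantile normalised within each plate, with replicate values also given as a mean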
Scale: mean viability with MMS and viability with MMS: higher = more surviving cells after MMS

gene knocked down,DRSC id,mean viability with MMS,"viability with MMS, replicate 1","viability with MMS, replicate 2"
CG1227,DRSC12534,3.43e6,3.91e6,3.83e6
Pten,DRSC03402,3.41e6,3.94e6,3.76e6
Cyp4e3,DRSC03306,3.52e6,3.99e6,4.02e6
ihog,DRSC03157,3.65e6,4.19e6,4.12e6
eca,DRSC22290,3.62e6,3.90e6,4.26e6
ocm,DRSC04360,2.81e6,3.44e6,2.56e6
CG17242,DRSC00493,3.50e6,3.99e6,3.94e6
MED19,DRSC10516,3.05e6,3.62e6,3.60e6
CG9067,DRSC07328,3.61e6,4.03e6,4.18e6
CG14395,DRSC14852,3.46e6,3.92e6,3.95e6
trol,DRSC17714,3.61e6,4.09e6,4.05e6
trol,DRSC17718,3.57e6,4.05e6,4.03e6
trol,DRSC18613,3.52e6,4.19e6,3.81e6
trol,DRSC18814,3.58e6,4.15e6,3.99e6
CG4259,DRSC00645,3.54e6,4.14e6,3.89e6
S6kII,DRSC20645,3.63e6,4.10e6,4.17e6
Obp99a,DRSC15303,3.41e6,3.84e6,3.84e6
Dhc64C,DRSC08656,3.42e6,3.87e6,3.90e6
mRRF2,DRSC16143,3.42e6,3.93e6,3.78e6
CG15773,DRSC18079,3.57e6,4.24e6,3.87e6
CG16854,DRSC02536,3.66e6,4.07e6,4.23e6
Smu1,DRSC15803,3.40e6,3.84e6,3.87e6
CG5890,DRSC15909,3.69e6,3.99e6,4.37e6
aux,DRSC12161,3.62e6,3.94e6,4.25e6
GluProRS,DRSC14095,3.47e6,3.88e6,3.98e6
CG33339,DRSC22917,3.60e6,4.09e6,4.03e6
Sf3b3,DRSC08370,3.05e6,3.62e6,3.64e6
CG13000,DRSC19519,3.41e6,3.81e6,3.88e6
CG4025,DRSC18523,3.58e6,4.16e6,3.97e6
jim,DRSC11889,3.64e6,4.04e6,4.20e6

Records above whose gene name starts with T or t:
gene knocked down,DRSC id,mean viability with MMS,"viability with MMS, replicate 1","viability with MMS, replicate 2"
trol,DRSC17714,3.61e6,4.09e6,4.05e6
trol,DRSC17718,3.57e6,4.05e6,4.03e6
trol,DRSC18613,3.52e6,4.19e6,3.81e6
trol,DRSC18814,3.58e6,4.15e6,3.99e6

Additional records follow:
gene knocked down,DRSC id,mean viability with MMS,"viability with MMS, replicate 1","viability with MMS, replicate 2"
CG15120,DRSC06542,3.59e6,4.01e6,4.12e6
CG4880,DRSC19923,3.68e6,4.21e6,4.18e6
CG11041,DRSC06025,3.67e6,4.24e6,4.06e6
CG1143,DRSC08188,3.81e6,4.23e6,4.24e6
CG32182,DRSC09508,3.44e6,3.88e6,3.97e6
insv,DRSC00579,3.46e6,3.86e6,3.97e6
CG7203,DRSC03026,3.64e6,4.60e6,3.66e6
CG5024,DRSC15698,3.63e6,4.02e6,4.21e6
pelo,DRSC03588,3.65e6,4.34e6,3.99e6
CG43795,DRSC04192,3.78e6,4.37e6,4.12e6
CG43795,DRSC04193,3.62e6,4.10e6,4.11e6
CG43795,DRSC04194,3.57e6,4.06e6,4.06e6
CG43795,DRSC04309,3.90e6,4.26e6,4.41e6
CG43795,DRSC04310,4.05e6,4.66e6,4.37e6
CG43795,DRSC22826,3.57e6,4.04e6,4.05e6
CG2321,DRSC15439,3.65e6,4.05e6,4.21e6
